Structures were worked out from names or drawings and are uncertain.
Target: human DGAT2 (Homo sapiens, UniProt Q96PD7)
Assay: DGAT2 enzyme activity inhibition, Phospholipid FlashPlate SPA
Settings: recombinant human DGAT2 membrane protein from Sf-21 cells; inhibition of [14C]-TG production; 37° C.

Protein sequences, listed by entry. Tags and fused reporters are not part of them.
UniProt Q96PD7, whole entry: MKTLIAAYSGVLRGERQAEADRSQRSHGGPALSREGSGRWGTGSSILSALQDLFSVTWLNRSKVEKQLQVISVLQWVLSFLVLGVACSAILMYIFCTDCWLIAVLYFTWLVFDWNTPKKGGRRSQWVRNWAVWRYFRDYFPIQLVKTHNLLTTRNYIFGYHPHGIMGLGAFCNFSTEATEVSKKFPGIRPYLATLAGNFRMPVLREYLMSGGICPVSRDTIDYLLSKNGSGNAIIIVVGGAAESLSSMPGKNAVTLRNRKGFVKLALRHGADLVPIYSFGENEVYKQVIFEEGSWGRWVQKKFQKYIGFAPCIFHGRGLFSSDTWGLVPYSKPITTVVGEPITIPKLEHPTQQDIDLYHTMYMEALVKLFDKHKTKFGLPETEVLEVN

CCOc1ccccc1O[C@@H]1CCCN(c2nc(Nc3cccc(-c4cccc(CC(C)(C)C(=O)O)c4)n3)ncc2F)C1
IC50: 1300 nM
